# Assay results reported in PubChem BioAssay AID1347075 (National Center for Advancing Translational Sciences (NCATS), 2019).
# Screen size: about 400,000 compounds; about 5,500 (1.4%) were called active. Inconclusive results, whose numbers are uncertain, are shown with a selection of clear calls. Calls follow the shape of the dose curve; as a rule, active = well fitted cell-killing curve with a large enough effect; inconclusive = small, poorly fitted or top-dose-only effect, or effect the other way; inactive = flat fitted curve, though single readings scatter. Potencies beside an inconclusive call are fits to weak or partial responses and may not hold up.
# Test: qHTS assay for MDR1-selective chemotherapeutics: Primary screen using the parental adenocarcinoma cell KB-3-1; also: nearly all actives have a fitted effect of over 60% in size
# Settings: KB-3-1 viability, CellTiter-Glo ATP luminescence, 72 h; activity change, negative = cytotoxic: at 46.1 µM (top of the series)
# Outline: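 Parental KB-3-1 viability, qHTS format: 72 h compound exposure, 37 °C; CellTiter-Glo; media-only wells and DMSO plates as controls; concentration-effect fits on corrected data.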
# % is scaled to controls: 0 for no effect and ±100 for the full control effect; potency is read from the fitted curve at half-maximal effect.
SMILES,Potency,"activity change, negative = cytotoxic"
Cc1cc(NC(=O)c2ccccc2F)ccc1-c1nc2ccccc2s1,inactive,
NC(=O)c1ccccc1N/C=C/C(=O)c1ccc(F)cc1,"inconclusive: 10.3 µM [cytotoxic, partial curve, poor fit]",
CCOc1ccccc1NC(C)C(=O)NC(=O)NC1CCCCC1 (configuration not stated),inactive,
N#Cc1c(N)nc(SCc2ccccn2)c(C#N)c1-c1cccs1,"inconclusive: 29.1 µM [cytotoxic, single point]",
COc1ccc(NC(=O)c2ccc3oc(=O)c(S(=O)(=O)c4ccc(F)cc4)cc3c2)cc1OC,"inconclusive: 18.4 µM [cytotoxic, single point]",
CCc1ccc(NC(=O)c2sc(-n3nc(C)c(CCC(C)C)c3C)nc2C)cc1,,inconclusive: -61.7%
Cc1cccc(C)c1OCC(=O)N(Cc1ccccc1F)C1CCS(=O)(=O)C1 (configuration not stated),"inconclusive: 32.6 µM [cytotoxic, single point]",
CSCC[C@H](NC(=O)OC(C)(C)C)C(=O)N/N=C/c1c(C)[nH]c(=O)[nH]c1=O,,inconclusive: 3.06%
c1ccc(COc2ncnc3c2ncn3CCCNC2CCN(Cc3ccccc3)CC2)cc1,"inconclusive: 18.4 µM [cytotoxic, single point]",
Cc1ccc(S(=O)(=O)c2nnn3c2nc(NC2CCCCCC2)c2sccc23)cc1C,"inconclusive: 4.11 µM [cytotoxic, full curve]",
COc1cc(NC(=O)Nc2ccccc2OC)c(OC)cc1NC(=O)CN1CCCCC1,"inconclusive: 18.4 µM [cytotoxic, single point]",
C=CCn1c(SCC(=O)Nc2ccccc2OC)nnc1-c1ccccn1,"inconclusive: 29.1 µM [cytotoxic, single point]",
CCCCNC(=O)/C(C#N)=C/c1cccnc1,inactive,
CCOc1ccccc1C1CC(=O)Nc2cc3c(cc21)OCCO3 (configuration not stated),active: 0.461 µM,
O=C1NC(=O)C2(CCC(C3CCCCC3)CC2)N1 (configuration not stated),"inconclusive: 29.1 µM [cytotoxic, single point]",
Cn1c(SCc2ccc(F)cc2)nnc1-c1ccncc1,"inconclusive: 0.0073 µM [cytotoxic, full curve, poor fit]",
Cc1cc(NC(=O)CSc2nc(C(C)C)nc3ccccc23)no1,"inconclusive: 29.1 µM [cytotoxic, single point]",
CC(CCN1CCN(c2ccccc2)CC1)c1ccccc1 (configuration not stated),inactive,
COc1ccc(OCc2cccc(C(=O)O)c2)cc1,"inconclusive: 14.6 µM [cytotoxic, partial curve, poor fit]",
O=C(CCn1cnc2ccccc21)N/N=C/c1ccccc1O,"inconclusive: 16.4 µM [cytotoxic, single point]",
CCN(CC)S(=O)(=O)c1ccc(C(=O)NNC(=O)c2cccs2)cc1,"inconclusive: 10.3 µM [rising, single point]",
O=C(Nc1ccccc1)c1ccccc1Oc1ccc(C(F)(F)F)cc1[N+](=O)[O-],"inconclusive: 18.4 µM [cytotoxic, partial curve, poor fit]",
O=C1C=C(c2ccc(Cl)cc2)C(=O)N1Nc1ccccc1,"inconclusive: 16.4 µM [cytotoxic, single point]",

SMILES,Potency,"activity change, negative = cytotoxic"
COC(=O)c1ccc(N2CCc3ccccc32)c([N+](=O)[O-])c1,inactive,
Cc1nn(-c2ccccc2)c(C)c1C(=O)NNC(=O)C(F)(F)F,inactive,
CC(=O)Nc1ccc(S(=O)(=O)NCCSCc2ccc(Cl)cc2Cl)cc1,"inconclusive: 23.1 µM [cytotoxic, single point]",
CCOc1ccc(NC(=O)CN2C(=O)CSC2=O)cc1,,inconclusive: -24.4%
O=C(O)c1cccnc1Nc1ccc(Cl)cc1,active: 7.31 µM,
O=C(NNC(=O)c1ccccc1O)c1cc2ccccc2o1,"inconclusive: 18.4 µM [cytotoxic, single point]",
CC(=O)Nc1ccc2c(COC(=O)[C@@H](NS(=O)(=O)c3ccc(C)cc3)C(C)C)cc(=O)oc2c1,"inconclusive: 29.1 µM [cytotoxic, single point]",
Brc1ccc(-c2nc(N/N=C/c3cccnc3)c3ccccc3n2)cc1,"inconclusive: 14.6 µM [cytotoxic, partial curve]",
O=c1c2cnn(-c3ccc(F)cc3)c2ncn1Cc1ccccc1Cl,inactive,
Cc1ccc(S(=O)(=O)N2C3CC(c4ccccc4)N(S(=O)(=O)c4ccccc4Cl)CC3C(=O)C[C@H]2c2ccccc2)cc1 (some centres not stated),inactive,
CCOC(=O)N1CCN(c2ncc(C(F)(F)F)cc2Cl)CC1,inactive,
Nc1[nH]c(C(=O)c2ccccc2)c(-c2ccccc2Br)c1C(=O)NCCc1c[nH]c2ccccc12,"inconclusive: 29.1 µM [cytotoxic, single point]",
COc1ccc(CCCNC(=O)C2Cc3c(-c4cccc(C(C)=O)c4)ccnc3O2)cc1 (configuration not stated),active: 6.51 µM,
CCN(CC)c1ccc(/C=N/NC(=S)NC)c(O)c1,active: 9.2 µM,
O=C(CNC(c1ccccc1)c1ccccc1)Nc1ccccc1-c1ccccc1,"inconclusive: 18.4 µM [cytotoxic, single point]",
C[n+]1ccc(/C=C/c2ccc([N+](C)(C)C)cc2)c2ccccc21,"inconclusive: 0.82 µM [cytotoxic, full curve, poor fit]",
COc1ccc(C(=O)/C(=C\c2ccco2)N2C=CC=CC2=C(C#N)C#N)cc1,"inconclusive: 1.64 µM [cytotoxic, partial curve, poor fit]",
O=C1COc2ccc(C(=O)CSc3nnc(Cc4cccs4)n3-c3ccc(Cl)cc3)cc2N1,"inconclusive: 18.4 µM [cytotoxic, partial curve]",
Cc1ccc(C(=O)NCC(=O)Nc2cccc(S(=O)(=O)NC3=NCCCCC3)c2)cc1C,inactive,
CC1CCCN(C(=O)c2ccc(COc3ccccc3Br)cc2)C1 (configuration not stated),"inconclusive: 29.1 µM [cytotoxic, single point]",
Cc1cc(C)n2nc(-c3ccccc3)c(-c3ccccc3)c2n1,"inconclusive: 20.6 µM [cytotoxic, single point]",
CN(C1CCCCC1)S(=O)(=O)c1ccc2c(c1)c(=O)c(C(=O)N1CCN(c3ccc(F)cc3)CC1)cn2C,"inconclusive: 25.9 µM [rising, single point]",
Fc1ccc(N2CCN(c3ncnc4c3nnn4Cc3ccccc3Cl)CC2)cc1,"inconclusive: 20.6 µM [cytotoxic, single point]",

# Looked up above:
# activity change, negative = cytotoxic, CCOc1ccc(NC(=O)CN2C(=O)CSC2=O)cc1 is entered as inconclusive: -24.4%
# Potency, O=C1COc2ccc(C(=O)CSc3nnc(Cc4cccs4)n3-c3ccc(Cl)cc3)cc2N1 is entered as inconclusive: 18.4 µM [cytotoxic, partial curve]

# Next part:

SMILES,Potency,"activity change, negative = cytotoxic"
Cc1cccc2nc(CSc3nc4ccccc4o3)cn12,"inconclusive: 20.6 µM [rising, partial curve, poor fit]",
CCN(CC)c1ccc(NS(=O)(=O)c2cn(C)c(=O)n(C)c2=O)c(C)c1,"inconclusive: 5.17 µM [rising, partial curve, poor fit]",
Cc1cc(C)n(-c2nc3ccccc3c(=O)n2OCc2ccc(Cl)cc2)n1,"inconclusive: 25.9 µM [cytotoxic, single point]",
Cc1cc(C)nc(SC2=CS(=O)(=O)c3ccccc32)n1,active: 18.4 µM,
COc1ccc(Nc2nc(C(C)(C)C)nc3c2nnn3Cc2ccccc2Cl)cc1OC,"inconclusive: 23.1 µM [cytotoxic, single point]",
CC(=O)C(=Cc1cccc(C#N)c1)C(=O)c1ccccc1,"inconclusive: 29.1 µM [cytotoxic, single point]",
N#Cc1c(N)nc2c3c(sc(=N)c2c1N)NC(=O)CC3c1ccccc1Cl (configuration not stated),"inconclusive: 18.4 µM [cytotoxic, single point]",
CSC1(SC2=NCCN2)SC2(NCCN2)S1,"inconclusive: 20.6 µM [cytotoxic, single point]",
CCCCCc1ccc(-c2ccc(=O)[nH]n2)cc1,active: 6.51 µM,
COc1ccc(S(=O)(=O)Nc2ccccc2-c2nc3ccccc3[nH]c2=O)cc1,"inconclusive: 20.6 µM [cytotoxic, single point]",
COc1cc2[nH]c(=O)n(CCCCCC(=O)NCCCN3CCCC3=O)c(=O)c2cc1OC,"inconclusive: 0.517 µM [rising, full curve, poor fit]",
Cc1ccc(C)c(NS(=O)(=O)c2cc(C(=O)Nc3ccccc3-c3ccccc3)ccc2C)c1,"inconclusive: 29.1 µM [cytotoxic, single point]",
CN(Cc1ccc(Cl)cc1)C(=O)c1ccc2ccccc2n1,"inconclusive: 0.0146 µM [cytotoxic, full curve]",
Cc1ccc(C)c(N2CCN(C(=O)c3ccc4nsnc4c3)CC2)c1,active: 11.6 µM,
CCN(c1ccccc1)S(=O)(=O)c1cc(C(=O)NCC(c2ccc(OC)cc2)N(C)C)ccc1C (configuration not stated),"inconclusive: 20.6 µM [cytotoxic, single point]",
CC(C)c1ccc(-c2noc(C3CCCN(S(C)(=O)=O)C3)n2)cc1 (configuration not stated),active: 20.6 µM,
CCN(CC)c1ccc(/C=C/c2ccc3ccc(OC)cc3[n+]2CC)cc1,"inconclusive: 2.31 µM [cytotoxic, full curve, poor fit]",
O=C(C[C@H]1C/C=C\C[C@H](NC(=O)OCC2c3ccccc3-c3ccccc32)C(=O)O[C@H](c2ccccc2)CNC1=O)N[C@H](CO)Cc1ccccc1,"inconclusive: 18.4 µM [cytotoxic, single point]",
COc1cc2c(Cc3ccccc3)cncc2cc1O,"inconclusive: 32.6 µM [cytotoxic, single point]",
Cc1ccc(F)c([C@H]2C3C=CCC(c4ccccc4)C3C(=O)N2Cc2ccccc2)c1 (some centres not stated),"inconclusive: 29.1 µM [cytotoxic, single point]",
CCS(=O)(=O)N1CCc2cc(C(=O)Nc3cc([N+](=O)[O-])ccc3C)ccc21,inactive,

# Ordered by molecular weight (high to low): part of the list above
SMILES,Potency,"activity change, negative = cytotoxic"
Cc1cccc2nc(CSc3nc4ccccc4o3)cn12,"inconclusive: 20.6 µM [rising, partial curve, poor fit]",
CSC1(SC2=NCCN2)SC2(NCCN2)S1,"inconclusive: 20.6 µM [cytotoxic, single point]",
COc1cc2c(Cc3ccccc3)cncc2cc1O,"inconclusive: 32.6 µM [cytotoxic, single point]",
